# Assay results from PubChem BioAssay AID2685 (National Center for Advancing Translational Sciences (NCATS), 2010).
# Some of the results follow. Further columns of the screen follow, without active or inactive calls. Most of these compounds were active or inconclusive in the main read-out, so they are no random draw. Potencies come from curve fits of mixed quality, noted in brackets.
# Test: qHTS Assay for Lipid Storage Modulators in Drosophila S3 Cells;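 on cell number change: cells counted by Cell Tracker Red CMTPX staining in the red channel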
# Conditions: BODIPY lipid droplet fluorescence, 18-24 h; for cell number change: measured here: cell count max response, cells fed with added oleic acid
# In short: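 Drosophila S3 cells got compounds at several concentrations plus oleic acid (400 uM solution). Laser-scanning cytometry with 488 nm excitation read lipid droplets at 500-530 nm and cells at 575-640 nm. Percent activity was relative to 20 uM Triacsin C.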
# [1] = measured here: cell number channel AC50, cells fed with added oleic acid
# [2] = measured here: lipid fluorescence (Fed channel) AC50, cells fed with added oleic acid
SMILES,cell number change [%],AC50 [1],AC50 [2]
CCOc1ccc(Cn2nnc(C(=O)NCc3ccccc3)c2N)cc1,7.61,"0.92 µM [rising, partial curve]","11.6 µM [rising, single point]"
Cc1ccnc(NC(=O)C(C)N2C(=O)c3ccccc3S2(=O)=O)c1 (stereo unspecified),4.23,"0.82 µM [rising, single point]","16.4 µM [rising, partial curve, poor fit]"
O=C(Nc1cc(N2CCCCC2)ncn1)c1ccccc1,30.8,"0.116 µM [falling, full curve, poor fit]","29.1 µM [rising, single point]"
CCOc1cc(CNCc2cc(OC)cc(OC)c2)ccc1OC,-13.9,,
COc1ccc(C2=NOC(Cn3nc(-c4ccccc4C)cc3C(=O)O)C2)cc1 (stereo unspecified),9.25,,
Cc1ccccc1-n1c(SCC(=O)N(C)C2CCS(=O)(=O)C2)nc2ccccc2c1=O (stereo unspecified),-22.6,,"29.1 µM [falling, single point]"
O=C(NCCO)C(=O)c1c(-c2ccccc2)cc2ccccn12,-21.1,"0.00461 µM [falling, full curve, poor fit]","14.6 µM [falling, partial curve]"
Cc1ccccc1Cn1cc(NC(=O)CCCn2nc([N+](=O)[O-])cc2C)cn1,-5.45,,
O=C(CN(Cc1cccs1)C(=O)CNS(=O)(=O)c1ccc(Cl)cc1)NCc1ccco1,28.7,,"29.1 µM [falling, single point]"
CCOC(=O)C1=C(C)NC(SCC(=O)O)=C(C#N)C1c1ccco1 (stereo unspecified),9.81,,
O=S(=O)(NCC(c1cccnc1)N1CCc2ccccc2C1)c1ccccc1 (stereo unspecified),15.3,,
CC(C)Cn1c(SC(C)C(=O)NC2CC2)nnc1-c1ccccc1F (stereo unspecified),-24.5,,"0.651 µM [falling, full curve, poor fit]"
Cc1ccnc(NS(=O)(=O)c2ccc(NC(=O)C3CCCO3)cc2)n1 (stereo unspecified),3.24,"0.0517 µM [rising, single point]",
CCOC(=O)c1nnc2cc(-c3ccccc3)nn2c1C,10.3,,"6.51 µM [falling, single point]"
COc1ccc(Cl)cc1NC(=O)C(=O)NCc1ccncc1,,,"29.1 µM [rising, single point]"
O=C(O)c1ccc(Cl)c(S(=O)(=O)N(Cc2ccccc2)c2ccc(Cl)cc2)c1,-26.1,,
O=C(c1ccc2c(c1)OCCO2)C1CCN(S(=O)(=O)c2ccccc2F)CC1,1.15,,"29.1 µM [falling, single point]"
NS(=O)(=O)c1cc(C(=O)NCCc2ccccn2)ccc1Cl,-9.24,,"4.61 µM [falling, single point]"
Cc1cccc(C(=O)N/N=C/C(C)Cc2ccc3c(c2)OCO3)c1 (stereo unspecified),7.65,,"0.517 µM [rising, full curve, poor fit]"
Oc1ccccc1C(=S)N1CCN(c2cccc(Cl)c2)CC1,-40.3,"14.6 µM [falling, single point]",

SMILES,cell number change [%],AC50 [1],AC50 [2]
O=c1[nH]c2ccc(S(=O)(=O)N3CCN(C4CCCCC4)CC3)cc2[nH]c1=O,,"3.66 µM [falling, single point]",
CCc1nc(NCCO)c(C#N)c2c1CSC(C)(C)C2,26.7,,
Nc1n[nH]c(N)c1N=Nc1ccc(Cl)cc1Cl,34.3,"5.8 µM [rising, partial curve]",
OCCC1CN(Cc2ccon2)CCN1Cc1ccccc1 (stereo unspecified),19.7,,"11.6 µM [rising, partial curve]"
COc1ccccc1OCC(=O)Nc1ccc(CSc2ccccc2)cc1C,85.8,"7.31 µM [rising, partial curve]","14.6 µM [rising, partial curve]"
CCOC(=O)NC(=O)CSc1nc(C)cc(C)c1C#N,6.64,,"1.84 µM [rising, full curve, poor fit]"
O=C(Nc1ccccc1Cl)/C(Cl)=C(\Cl)S(=O)c1ccccc1 (stereo unspecified),,,"4.11 µM [falling, partial curve, poor fit]"
NC(=O)c1c(NC(=O)c2ccccc2Cl)sc2c1CCC2,-28.5,,"6.51 µM [rising, single point]"
NC(=O)N/N=C/c1cc(Br)ccc1OC(=O)c1ccccc1,3.29,,"29.1 µM [rising, single point]"
COc1ccc(OC)c(CCNC(=O)c2sc3nc4n(c(=O)c3c2C)CCC4)c1,-54.6,"10.3 µM [falling, partial curve, poor fit]","1.64 µM [falling, partial curve]"
COc1ccc(OCC(=O)N/N=C(\C)CC(=O)Nc2ccc(NC(C)=O)cc2)cc1,-13.9,,"29.1 µM [falling, single point]"
COc1ccccc1C(=O)NCCc1nc2ccccc2n1C,3.47,,"0.092 µM [falling, full curve, poor fit]"
COc1cc(C(=O)NCC2(c3ccccc3)CCCC2)ccc1OC(C)C,-8.51,,
COc1ccccc1OCCC(=O)OCC(=O)NC(=O)NC(C)(C)C,-0.788,,"1.03 µM [rising, full curve, poor fit]"
Cc1ccc(S(=O)(=O)N2CCCC(CCC(=O)NCc3ccccc3F)C2)s1 (stereo unspecified),-8.12,,"16.4 µM [falling, single point]"
NC(=O)CC(NC(=O)Cc1ccc(Cl)cc1)c1ccc(N2CCN(c3ccccn3)CC2)c([N+](=O)[O-])c1 (stereo unspecified),8.68,,"0.461 µM [falling, single point]"
Cc1ccc(CNC(=O)CSc2c3c(nc4cc(Cl)ccc24)CCCC3)o1,,"0.461 µM [rising, full curve]",
COc1ccc(NS(=O)(=O)c2c(C(=O)N3CCCCCC3)c(C)n(C)c2C)cc1,-18.4,,"0.231 µM [falling, full curve, poor fit]"
CCC(NC(=O)c1ccccc1NC(=O)C(C)(C)C)C(=O)N1CCCC1 (stereo unspecified),19.1,,
CCn1nc(C)c(/C=N/NC(=O)c2ccc3c(c2)c(C)c(C)n3Cc2ccccc2)c1C,78.2,"10.3 µM [rising, partial curve, poor fit]","0.116 µM [rising, full curve, poor fit]"

# Three structures out of the list, ordered by length of the SMILES, largest number first.
SMILES,cell number change [%],AC50 [1],AC50 [2]
Cc1ccc(S(=O)(=O)N2CCCC(CCC(=O)NCc3ccccc3F)C2)s1 (stereo unspecified),-8.12,,"16.4 µM [falling, single point]"
CCC(NC(=O)c1ccccc1NC(=O)C(C)(C)C)C(=O)N1CCCC1 (stereo unspecified),19.1,,
Cc1cccc(C(=O)N/N=C/C(C)Cc2ccc3c(c2)OCO3)c1 (stereo unspecified),7.65,,"0.517 µM [rising, full curve, poor fit]"

# Further entries follow:

SMILES,cell number change [%],AC50 [1],AC50 [2]
Cc1ccc(OC(=O)Nc2ccccc2)cc1,-2.22,,
COc1cc(C(=O)NNC(=S)Nc2ccc(S(N)(=O)=O)cc2)cc(OC)c1OC,18.5,,"2.91 µM [rising, partial curve, poor fit]"
Cc1ccc(/C=N/Nc2ncnc3nc[nH]c23)cc1,-9,,"0.461 µM [rising, partial curve, poor fit]"
CCc1sc(C(=O)N2CCN(c3ccc(F)cc3)CC2)cc1C,,,"3.66 µM [rising, partial curve]"
O=C(C1Cc2ccccc2CN1C(=O)c1ccco1)N1CCN(c2ccccc2)CC1 (stereo unspecified),-5.89,,"6.51 µM [rising, full curve, poor fit]"
Cc1csc(NC(=O)CCc2ccc(S(=O)(=O)N3CCOCC3)cc2)n1,,"2.59 µM [rising, partial curve]","6.51 µM [rising, single point]"
CC(C)CC(=O)N1CCC(N(CCc2ccccc2)Cc2ccccc2)CC1,-25.1,,"0.058 µM [falling, full curve, poor fit]"
CCOC(=O)C1(CCc2ccccc2)CCN(Cc2cccc3nccnc23)CC1,-23,,"20.6 µM [falling, single point]"
N#C/C(=C(/O)CCCl)c1ccccn1,-44,"29.1 µM [falling, single point]","14.6 µM [falling, partial curve]"
Cn1nnnc1SCCNCc1ccccc1OCc1ccc(F)cc1,32.1,"5.17 µM [rising, full curve, poor fit]",
O=C(c1ccccc1)C(Cn1cncn1)C(Sc1ccccc1)c1ccccc1 (stereo unspecified),-7.05,,"0.731 µM [rising, full curve]"
COCCn1c(C)cc(/C=C2/NC(=O)N(c3ccc(Cl)cc3)C2=O)c1C,20.4,,"5.8 µM [rising, single point]"
COc1cccc(COC(=O)C2CCN(C(=O)c3ccccc3C)CC2)c1OC,45,"29.1 µM [rising, single point]","32.6 µM [rising, partial curve]"
COc1ccc(CCN(C)C(=O)CSc2nc3ncc(Cl)cc3[nH]2)cc1OC,,,"0.116 µM [rising, partial curve, poor fit]"
Cc1ccc(Nc2nnc(-c3ccc(N4CCOCC4)c([N+](=O)[O-])c3)c3ccccc23)cc1,-39.2,"0.326 µM [falling, partial curve, poor fit]","25.9 µM [falling, single point]"
COc1cccc(/C=C/C(=O)NNC(=O)CCN2CCN(Cc3ccccc3)CC2)c1,14.2,,"23.1 µM [rising, single point]"
CC(=O)C1=C(C)N(Cc2ccccc2)C(=O)N[C@H]1CCc1ccccc1,14.3,"0.82 µM [falling, full curve, poor fit]","29.1 µM [rising, single point]"
Cn1c(=O)[nH]c(=O)c2c1nc(Br)n2CC(O)COc1ccc(Cl)cc1 (stereo unspecified),10.8,"0.00461 µM [rising, full curve, poor fit]",
O=c1oc2ccccc2cc1-c1csc(Nc2nc3c(F)cccc3s2)n1,16.8,,"20.6 µM [rising, single point]"
COc1ccccc1/C=N/NC(=O)c1cccc(OC(F)(F)C(F)F)c1,-19.4,"3.26 µM [rising, single point]","4.11 µM [rising, partial curve, poor fit]"
